The nature of one data set: in vitro. The note with it: mouse.
Data set [1] has as its system PrP^Sc in dividing ScN2a-cl3 cells. It counts as cell-based, mouse. The conditions noted are these: read-out: EC50 ± SEM (antiprion activity by ELISA). (An ELISA detects its analyte on a solid surface through an enzyme-linked reagent.)

By EC50 is commonly meant the concentration that produces a half-maximal response. Compound `CC/C(=C(\c1ccccc1)c1ccc(OCCN(C)C)cc1)c1ccccc1` [Tamoxifen] returned an EC50 in “in vitro” of 4.3 to 9.6 µM.
For orientation: CC50 means the concentration that lowers cell viability or growth by half. For `Clc1ccc2c(c1)CCc1cccnc1C2=C1CCNCC1` [Desloratidine, reference compound], the EC50 in data set [1] amounted to 6.66 ± 0.56 µM. This compound had a CC50 in the data set with dividing ScN2a-cl3 cells of 9.56 µM.

These data come from article PMC3984054 (Bioorganic & medicinal chemistry, 2013).
